These results are taken from patent US20250009917A1, “MACROCYCLE CONTAINING COMPOUNDS AND RADIOLABELLED COMPLEXES THEREOF, AS LIGANDS IN TARGETED RADIOTHERAPY APPLICATIONS” (THE UNIVERSITY OF MELBOURNE, priority 2021, published 2025).

The nature of series [1]: Ac-225 labelling concentration study (radiochemical yield by TLC). Particulars: for complexation of [^225Ac]Ac: lower chelator concentrations.
Series [2] can be described thus: Speed of complexation with Ac-225 comparison study (radiochemical yield over time by TLC). Particulars: ambient temperature.

`O=C(O)c1cccc(CN2CCOCCOCCN(Cc3cccc(C(=O)O)n3)CCOCCOCC2)n1` [Compound H2macropa, N,N′-bis[(6-carboxy-2-pyridil)methyl]-4,13-diaza-18-crown-6]: the Ac-225 radiolabelling result in series [1] (up to a chelator concentration of 10^−6 M, ambient temperature, 2 hours) was “quantitatively”.
For `O=C(O)CN1CCN(CC(=O)O)CCN(CC(=O)O)CCN(CC(=O)O)CC1` [DOTA, 2,2′,2″,2″′-(1,4,7,10-Tetraazacyclododecane-1,4,7,10-tetrayl)tetraacetic acid], the Ac-225 radiolabelling yield result in series [1] (heated to 90° C.) is “quantitative radiolabelling yields”. In addition, the “complexation of [^225Ac]Ac” value in series [1] (ambient temperature, 2 hours) is listed as “no complexation”.
`CC(=O)O.CC(=O)O.CC(=O)O.CC(=O)O.CC(=O)O.NCCNCCN` [DTPA, Diethylenetriamine pentaacetate]: the “complexation of [^225Ac]Ac” value in series [1] (ambient temperature, 2 hours) was “no complexation”.
Same read-out and setting: in the case of `O=C(O)CN(CCN(CC(=O)O)CC(=O)O)CC(=O)O` [EDTA, ethylenediaminetetraacetic acid] it was “no complexation”.
Take `CCOc1c(NCCOCCOCCOCCn2cc(COc3cc(CN4CCOCCOCCN(Cc5cccc(C(=O)O)n5)CCOCCOCC4)nc(C(=O)O)c3)nn2)c(=O)c1=O` [H2macropa-tzPEG3SqOEt]: the radiochemical yield entry in series [2] (10^−7 M chelator, 5 minutes incubation) is on record as “started to drop”; in series [2] (all concentrations (10^−5, 10^−6, 10^−7 M), 15 minutes) it was “quantitative yields”.
